## Percent effect of library compounds

Sequences of proteins named here, by UniProt entry; tags and fusion partners are left off. Residues count along the entry.
UniProt P9WNZ1, whole entry: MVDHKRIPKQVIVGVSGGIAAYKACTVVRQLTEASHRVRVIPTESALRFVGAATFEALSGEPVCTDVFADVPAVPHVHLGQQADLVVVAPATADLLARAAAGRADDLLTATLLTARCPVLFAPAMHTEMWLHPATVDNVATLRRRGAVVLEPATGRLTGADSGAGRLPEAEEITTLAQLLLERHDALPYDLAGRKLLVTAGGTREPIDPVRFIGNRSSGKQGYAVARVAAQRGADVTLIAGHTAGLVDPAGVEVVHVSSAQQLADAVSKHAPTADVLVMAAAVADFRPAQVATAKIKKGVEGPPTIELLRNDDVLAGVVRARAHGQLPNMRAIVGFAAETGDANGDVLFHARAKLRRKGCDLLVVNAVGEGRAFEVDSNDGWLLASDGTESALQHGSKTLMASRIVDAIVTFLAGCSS
UniProt Q8IDJ8, 1-583: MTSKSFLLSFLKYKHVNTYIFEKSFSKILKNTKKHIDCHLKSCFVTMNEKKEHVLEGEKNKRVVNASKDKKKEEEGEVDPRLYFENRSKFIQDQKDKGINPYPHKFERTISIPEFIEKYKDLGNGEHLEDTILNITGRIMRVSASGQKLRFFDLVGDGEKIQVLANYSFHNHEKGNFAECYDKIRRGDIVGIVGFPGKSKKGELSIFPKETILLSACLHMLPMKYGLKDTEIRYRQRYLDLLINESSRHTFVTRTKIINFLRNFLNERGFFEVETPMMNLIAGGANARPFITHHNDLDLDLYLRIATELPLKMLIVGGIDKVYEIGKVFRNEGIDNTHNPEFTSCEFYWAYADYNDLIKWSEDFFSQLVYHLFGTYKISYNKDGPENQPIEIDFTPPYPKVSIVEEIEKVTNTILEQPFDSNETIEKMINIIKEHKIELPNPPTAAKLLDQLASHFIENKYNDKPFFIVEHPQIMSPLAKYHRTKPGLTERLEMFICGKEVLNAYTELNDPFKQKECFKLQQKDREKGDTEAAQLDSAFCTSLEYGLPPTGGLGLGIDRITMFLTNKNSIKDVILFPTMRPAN
UniProt A4I591, 1-473: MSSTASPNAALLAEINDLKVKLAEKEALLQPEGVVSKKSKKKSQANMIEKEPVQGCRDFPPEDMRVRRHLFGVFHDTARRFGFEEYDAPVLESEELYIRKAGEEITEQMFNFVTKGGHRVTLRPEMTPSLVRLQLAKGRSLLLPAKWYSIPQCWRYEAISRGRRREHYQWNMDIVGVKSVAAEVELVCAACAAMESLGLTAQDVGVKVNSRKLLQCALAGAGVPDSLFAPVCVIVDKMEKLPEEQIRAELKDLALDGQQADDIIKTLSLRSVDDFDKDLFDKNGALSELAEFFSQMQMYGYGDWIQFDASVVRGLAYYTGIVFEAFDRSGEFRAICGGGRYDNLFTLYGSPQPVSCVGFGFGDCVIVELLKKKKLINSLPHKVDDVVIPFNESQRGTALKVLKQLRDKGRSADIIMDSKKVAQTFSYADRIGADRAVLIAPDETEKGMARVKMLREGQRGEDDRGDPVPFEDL

Source: ChEMBL document CHEMBL3988442, “University of Dundee, Small-Polar-MMV Screening Library” (2021).

Values are the deposited “Percent Effect”, in %.
How 0% and 100% were set is not recorded. Most values in the screen are low, and negative values occur.
Compounds were drawn at random from those tested, without regard to their results.
A dash means the value is not listed here; it may have been measured.

CoaBC: 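Enzyme assay of CoaBC with a phosphate dye (Biomol Green) read at 650 nm. Target: Coenzyme A biosynthesis protein CoaBC, Mycobacterium tuberculosis (UniProt P9WNZ1). Concentration: 30 µM. Direction is inferred from only a few compounds that gave an IC50; most scored high, so higher reads as stronger inhibition. Most strong results did not repeat in a second test. About 67,000 compounds were tested under these conditions; 0.06% (about 40) showed 50% or more at least once.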
PfKRS1: 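Enzyme assay of the cytosolic lysyl-tRNA synthetase in 384-well plates, read by luminescence. Target: Lysine-tRNA ligase, Plasmodium falciparum 3D7 (UniProt Q8IDJ8). Concentration: 30 µM. Higher reads as stronger inhibition, judged from the few compounds that gave an IC50. Size under these conditions: about 69,000 compounds, about 49 of them at 50% or above in at least one test.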
LiHisRS: 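Histidine-tRNA ligase, Leishmania infantum (UniProt A4I591). Enzyme assay of histidyl-tRNA synthetase; the read-out is not stated. Concentration: 30 µM. The record gives no direction; compounds that gave an IC50 in retests scored well above the rest, so higher reads as stronger inhibition. The assay is labelled LdHisRS but filed under L. infantum. Of about 69,000 compounds tested this way, about 410 (0.6%) reached 50% or more in at least one test.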

| # | structure | CoaBC | PfKRS1 | LiHisRS |
|---|---|---|---|---|
| 1 | `CCN(CC)c1ncccc1CNCc1cc2ccccc2s1` | 9.385% | 1.109% | 22.35% |
| 2 | `Cn1c(Cn2ccnc2)nnc1C1CCN(C(=O)c2ccccn2)CC1` | 12.44% | 7.584% | 20.21% |
| 3 | `CC(COc1ccccc1F)NC(=O)N[C@@H]1C=C[C@H](CO)C1` (stereo partly specified) | 2.593% | 1.817% | 7.937% |
| 4 | `Cc1[nH]c(=O)[nH]c(=O)c1CN1CCCC(CCc2c(F)cccc2F)C1` (stereo unspecified) | -1.493% | 3.77% | 28.85% |
| 5 | `Cc1ccc(C(=O)N2C[C@@H]3C[C@@H](c4nnc(C5CC5)o4)O[C@@H]3C2)s1` | 11.11% | 2.616% | 21.05% |
| 6 | `COc1cccc(OC2CN(C(=O)CCn3cnc4ccccc43)C2)c1` | 7.673% | -7.272% | 12% |
| 7 | `O=S(=O)(NCCCn1cncn1)c1ccc2c(c1)CCO2` | -30.22% | -3.176% | 5% |
| 8 | `O=C(Cc1ccccn1)N1CCN2C[C@H](Oc3cccc(F)c3)C[C@H]2C1` | 3.856% | -7.789% | 1.504% |
| 9 | `CN1N=C(c2nc(Cc3cccc(Br)c3)no2)CCC1=O` | -1.538% | 1.628% | 2.857% |
| 10 | `COCC1CN(Cc2ccc(C)o2)Cc2ncn(CC3CC3)c21` (stereo unspecified) | 0.9091% | 1.773% | 6.604% |
| 11 | `COC(=O)c1ccc(N(C(=O)c2cccnc2C)C(C)C)c(C)c1` | 1.911% | 3.466% | 10.36% |
| 12 | `COc1ccccc1C1(O)CCCN(C(=O)c2cnc(SC)nc2)C1` (stereo unspecified) | -7.363% | 4.083% | 11.27% |
| 13 | `O=C(c1ccc(Br)o1)N1CCCC(n2cncn2)C1` (stereo unspecified) | -10.97% | -0.5277% | 6.731% |
| 14 | `COc1ccc(C)c(NC(=O)NCc2ncnn2C)c1` | 5.732% | 0.4473% | 9.326% |
| 15 | `O=C([C@@H]1CN(Cc2nccs2)C[C@H]2OCC[C@H]21)N1CCOCC1` | -0.1236% | 1.108% | 17% |
| 16 | `O=S(=O)(c1ccccc1N1CC(n2cccn2)C1)C(F)(F)F` | -4.084% | 4.821% | 8.333% |
| 17 | `CS(=O)(=O)c1ccc(O[C@H]2COCCN(C(=O)c3ccno3)C2)cc1` | 0.2208% | 4.161% | 28.38% |
| 18 | `Cc1cc(Cn2cc(C#N)c(=O)c3ccccc32)no1` | 1.595% | 2.464% | 3.333% |
| 19 | `c1cncc(COCc2nnc3n2CCN(Cc2ccoc2)C3)c1` | -5.455% | -0.5472% | 19.81% |
| 20 | `Cc1c(NCCCOc2cccc(C#N)c2)cccc1C(N)=O` | 2.811% | 2.322% | 16.42% |
| 21 | `CC(Cn1ccnc1)NC(=O)N1CCN(Cc2ccco2)CC1` (stereo unspecified) | 5.196% | 0% | 0% |
| 22 | `CC(C)=CCN1CCOC(Cn2cccn2)C1` (stereo unspecified) | -11.53% | -0.2278% | 6.838% |
| 23 | `Cc1cc(C(=O)NC2CCN(c3ncccc3C#N)CC2)no1` | -0.609% | -2.992% | 18.28% |
| 24 | `Cc1cccc(-n2nnnc2C(C)(C)Nc2ccccc2C)c1` | 8.671% | 3.793% | 7.143% |
| 25 | `CN(Cc1noc2c1CCCC2)C(=O)Cn1cnc2ccccc2c1=O` | 8.4% | 3.382% | 17.95% |
| 26 | `Cc1cncc(C2CCN(Cc3cccn3C)CC2)n1` | -2.913% | -2.633% | -4.348% |
| 27 | `Cc1cccc(C(=O)Nc2ccc(OC3CCN(C)CC3)cc2)c1` | -35% | 1.357% | 10.38% |
| 28 | `CCn1cc2c(n1)CN(Cc1ccc(C)o1)CC2COCC1CC1` (stereo unspecified) | 3.553% | -0.1625% | 14.71% |
| 29 | `COCCCNC(=O)CN(C)C(=O)c1cc(C)ccc1O` | 7.42% | 3.014% | 12.31% |
| 30 | `CN1[C@@H](c2ccccc2)[C@@H](C(=O)NCC2CCOCC2)C[C@@]1(C)C(=O)O` | 4.963% | 0.5832% | 17.02% |
| 31 | `O=S(=O)(NCc1cn2ccccc2n1)N1CCOCC1` | 5.66% | 8.282% | 15.93% |
| 32 | `Cc1noc(CN2CC=C(c3cnn(C4CCS(=O)(=O)C4)c3)CC2)n1` (stereo unspecified) | 0.9756% | 4.096% | 23.33% |
| 33 | `Fc1ccc(CN2Cc3nccn3CC(CN3CCOCC3)C2)cc1` (stereo unspecified) | -6.694% | 2.216% | 21.1% |
| 34 | `Cc1cccc(CN2C[C@@H]3COC[C@H](NS(C)(=O)=O)[C@@H]3C2)n1` | -5.549% | 0.9907% | 5.556% |
| 35 | `O=S(=O)(c1cn[nH]c1)N1CCC(O)(CN2CCC(F)(F)CC2)C1` (stereo unspecified) | 5.085% | 2.172% | 4.196% |
| 36 | `CC(C)[C@@H]1CN(CC(=O)NCc2ccco2)C[C@H]1NS(=O)(=O)N(C)C` | - | 1.665% | 15.83% |
| 37 | `c1ccc(CCN2CCOC3(CCc4ccccc43)C2)nc1` (stereo unspecified) | 0.2445% | 0.2067% | 5.479% |
| 38 | `COCCN1CCC(NC(=O)Nc2cccc(F)c2)C1` (stereo unspecified) | 1.467% | -0.8111% | 4.839% |
| 39 | `FC(F)COc1ccccc1NCc1nnsc1Cl` | 0.7782% | 2.304% | -2.703% |
| 40 | `CCCc1cc(N2CCC(NCC3(O)CCN(C)CC3)CC2)nc(C)n1` | -0.1242% | 0.5427% | 9.167% |
| 41 | `Nc1nc(CCCNC(=O)c2ccccc2C2CCNC2)cs1` (stereo unspecified) | 5.353% | 5.233% | 26.67% |
| 42 | `CNc1ncc(C(=O)N2CCC3(CC2)Nc2ccccc2NC3=O)cn1` | -0.1206% | 7.807% | 13.6% |
| 43 | `Cc1nc(C2CCCN2Cc2nnc(C3CC3)o2)no1` (stereo unspecified) | 0% | -0.2242% | 15.38% |
| 44 | `CS(=O)(=O)N(Cc1ccon1)c1ccc2c(c1)OCO2` | 8.025% | -0.6711% | 4.301% |
| 45 | `COCCNC(=O)[C@@]12CCO[C@@H]1CCN(Cc1scnc1C)C2` | -6.947% | 0.3586% | 11.5% |
| 46 | `CCc1cc(NC2CCN(CC(N)=O)CC2)nc(N2CCCCC2)n1` | 0.7453% | 2.663% | 11.11% |
| 47 | `COCCN1CCN(Cc2cnc(C3(C)CCCCO3)nc2)CC1` (stereo unspecified) | -7.506% | 2.577% | 13.99% |
| 48 | `CC(C)(C)c1cc(=O)n2c(n1)SCC(C(=O)NCc1cccs1)C2` (stereo unspecified) | -1.211% | -2.114% | 4.348% |
| 49 | `Cc1ccc(C2COCCN2C(=O)c2ccsc2)o1` (stereo unspecified) | -7.851% | 4.483% | 4.464% |
| 50 | `Cn1cc(C2CC(=O)NC23CCN(C(=O)c2cccnc2)CC3)cn1` (stereo unspecified) | 4.061% | 2.485% | 5.882% |
| 51 | `CCOc1ccccc1C(CC(=O)Nc1ncc(C)s1)NC(C)=O` (stereo unspecified) | -0.3802% | -1.556% | 12.5% |
| 52 | `Cc1cccc(N2CCN(CCC(=O)NCc3ccc(C)s3)CC2)c1` | 0.1206% | -3.223% | 0.8% |
| 53 | `Fc1cnc(N2CCCC3(CCN(c4ncccn4)C3)C2)nc1` (stereo unspecified) | 2.423% | -0.01147% | 3.191% |
| 54 | `CCC1=N[C@@]2(CC[C@@H]3CN(C(=O)NCc4cccc(F)c4)C[C@@H]32)C(=O)N1` | 3.448% | 3.225% | 10.09% |
| 55 | `O=C(C1CCCO1)N1CCC2(CC1)CNCCO2` (stereo unspecified) | - | -1.204% | 15.38% |

For reference, 6 entries once more:

Result for CC(COc1ccccc1F)NC(=O)N[C@@H]1C=C[C@H](CO)C1 (stereo partly specified) was CoaBC: 2.593%; PfKRS1: 1.817%; LiHisRS: 7.937%.
Result for Cc1cccc(-n2nnnc2C(C)(C)Nc2ccccc2C)c1 was CoaBC: 8.671%; PfKRS1: 3.793%; LiHisRS: 7.143%.
Result for CCn1cc2c(n1)CN(Cc1ccc(C)o1)CC2COCC1CC1 (stereo unspecified) was CoaBC: 3.553%; PfKRS1: -0.1625%; LiHisRS: 14.71%.
Result for CNc1ncc(C(=O)N2CCC3(CC2)Nc2ccccc2NC3=O)cn1 was CoaBC: -0.1206%; PfKRS1: 7.807%; LiHisRS: 13.6%.
Result for O=C(C1CCCO1)N1CCC2(CC1)CNCCO2 (stereo unspecified) was PfKRS1: -1.204%; LiHisRS: 15.38%.
Result for O=C(Cc1ccccn1)N1CCN2C[C@H](Oc3cccc(F)c3)C[C@H]2C1 was CoaBC: 3.856%; PfKRS1: -7.789%; LiHisRS: 1.504%.